Experimental findings from article PMC2702331 are described below.

Protein sequences, listed by entry. Tags and fused reporters are not part of them.
UniProt P04608: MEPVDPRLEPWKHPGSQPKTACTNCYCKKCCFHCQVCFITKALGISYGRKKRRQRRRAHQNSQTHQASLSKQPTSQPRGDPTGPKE
UniProt Q09028: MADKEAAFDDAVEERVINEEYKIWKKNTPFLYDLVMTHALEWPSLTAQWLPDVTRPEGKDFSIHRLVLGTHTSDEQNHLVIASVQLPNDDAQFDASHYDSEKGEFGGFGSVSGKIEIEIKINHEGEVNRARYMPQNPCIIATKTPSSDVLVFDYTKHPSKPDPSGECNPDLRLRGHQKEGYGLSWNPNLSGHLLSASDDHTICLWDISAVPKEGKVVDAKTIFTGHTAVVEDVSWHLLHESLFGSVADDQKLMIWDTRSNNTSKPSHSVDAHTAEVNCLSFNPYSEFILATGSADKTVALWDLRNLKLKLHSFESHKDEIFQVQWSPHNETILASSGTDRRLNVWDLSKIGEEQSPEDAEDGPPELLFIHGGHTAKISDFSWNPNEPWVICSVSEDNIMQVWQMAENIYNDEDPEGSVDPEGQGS
UniProt Q13422: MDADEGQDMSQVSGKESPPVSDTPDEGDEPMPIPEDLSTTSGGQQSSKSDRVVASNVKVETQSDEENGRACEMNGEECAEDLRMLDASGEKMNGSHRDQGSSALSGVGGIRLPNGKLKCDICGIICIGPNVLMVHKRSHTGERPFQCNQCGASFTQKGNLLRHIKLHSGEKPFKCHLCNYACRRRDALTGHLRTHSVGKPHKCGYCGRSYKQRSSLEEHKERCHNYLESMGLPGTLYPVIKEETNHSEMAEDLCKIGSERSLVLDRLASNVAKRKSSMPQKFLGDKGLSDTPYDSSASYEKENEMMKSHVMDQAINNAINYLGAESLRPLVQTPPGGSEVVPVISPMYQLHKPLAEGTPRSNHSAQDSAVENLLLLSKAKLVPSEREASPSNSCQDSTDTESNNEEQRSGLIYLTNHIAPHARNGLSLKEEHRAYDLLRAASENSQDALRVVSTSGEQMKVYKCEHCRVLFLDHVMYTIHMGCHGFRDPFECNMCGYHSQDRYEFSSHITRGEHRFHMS
UniProt O60264: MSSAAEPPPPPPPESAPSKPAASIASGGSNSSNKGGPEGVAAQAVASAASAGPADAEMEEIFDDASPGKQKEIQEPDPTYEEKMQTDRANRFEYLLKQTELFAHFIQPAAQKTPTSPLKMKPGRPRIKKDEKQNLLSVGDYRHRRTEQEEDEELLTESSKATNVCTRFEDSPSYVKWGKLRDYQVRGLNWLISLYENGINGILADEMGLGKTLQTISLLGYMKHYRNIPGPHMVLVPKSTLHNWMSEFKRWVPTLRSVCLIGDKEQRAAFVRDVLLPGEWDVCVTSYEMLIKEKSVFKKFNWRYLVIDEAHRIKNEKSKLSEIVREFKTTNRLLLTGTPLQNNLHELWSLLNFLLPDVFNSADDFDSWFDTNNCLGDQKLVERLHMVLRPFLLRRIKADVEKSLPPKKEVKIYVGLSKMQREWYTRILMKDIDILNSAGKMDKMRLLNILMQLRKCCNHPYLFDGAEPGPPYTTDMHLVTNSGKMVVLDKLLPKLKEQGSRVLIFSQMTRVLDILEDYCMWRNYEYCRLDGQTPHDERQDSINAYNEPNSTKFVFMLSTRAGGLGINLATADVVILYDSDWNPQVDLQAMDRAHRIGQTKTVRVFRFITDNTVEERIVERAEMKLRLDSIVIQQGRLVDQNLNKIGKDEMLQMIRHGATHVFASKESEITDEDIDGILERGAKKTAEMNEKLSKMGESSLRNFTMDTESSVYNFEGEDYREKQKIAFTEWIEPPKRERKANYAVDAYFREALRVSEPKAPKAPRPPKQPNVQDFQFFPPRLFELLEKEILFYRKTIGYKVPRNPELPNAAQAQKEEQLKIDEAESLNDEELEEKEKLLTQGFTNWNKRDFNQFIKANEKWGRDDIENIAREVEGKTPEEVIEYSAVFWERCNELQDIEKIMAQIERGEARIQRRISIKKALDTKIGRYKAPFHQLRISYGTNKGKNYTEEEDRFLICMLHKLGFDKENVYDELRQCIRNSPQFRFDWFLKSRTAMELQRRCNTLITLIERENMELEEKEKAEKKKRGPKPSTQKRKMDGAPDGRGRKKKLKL
UniProt O96019: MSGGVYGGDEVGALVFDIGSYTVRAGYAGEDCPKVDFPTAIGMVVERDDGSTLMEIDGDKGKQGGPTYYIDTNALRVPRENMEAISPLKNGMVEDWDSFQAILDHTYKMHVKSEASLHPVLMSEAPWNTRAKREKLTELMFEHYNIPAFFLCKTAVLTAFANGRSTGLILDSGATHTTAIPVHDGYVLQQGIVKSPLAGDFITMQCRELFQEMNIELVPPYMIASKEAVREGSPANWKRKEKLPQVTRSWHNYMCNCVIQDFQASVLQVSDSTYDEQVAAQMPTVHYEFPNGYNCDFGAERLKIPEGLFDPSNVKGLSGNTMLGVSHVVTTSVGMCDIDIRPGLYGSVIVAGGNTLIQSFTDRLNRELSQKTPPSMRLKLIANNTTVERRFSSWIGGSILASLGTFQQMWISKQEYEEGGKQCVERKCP
UniProt Q13547: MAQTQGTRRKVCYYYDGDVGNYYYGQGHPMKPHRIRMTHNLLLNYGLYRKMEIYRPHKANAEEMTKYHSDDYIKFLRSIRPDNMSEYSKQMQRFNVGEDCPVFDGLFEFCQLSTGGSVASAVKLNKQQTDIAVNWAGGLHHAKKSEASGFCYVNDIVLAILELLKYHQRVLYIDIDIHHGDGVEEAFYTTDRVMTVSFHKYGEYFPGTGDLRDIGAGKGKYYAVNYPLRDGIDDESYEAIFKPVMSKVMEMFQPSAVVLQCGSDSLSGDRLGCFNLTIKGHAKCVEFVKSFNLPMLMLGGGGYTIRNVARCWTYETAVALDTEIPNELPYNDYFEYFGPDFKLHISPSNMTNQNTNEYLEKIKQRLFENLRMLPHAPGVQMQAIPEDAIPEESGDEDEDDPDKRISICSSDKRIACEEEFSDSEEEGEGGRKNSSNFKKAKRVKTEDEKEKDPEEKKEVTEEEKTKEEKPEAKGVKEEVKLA
UniProt Q9Y5B9: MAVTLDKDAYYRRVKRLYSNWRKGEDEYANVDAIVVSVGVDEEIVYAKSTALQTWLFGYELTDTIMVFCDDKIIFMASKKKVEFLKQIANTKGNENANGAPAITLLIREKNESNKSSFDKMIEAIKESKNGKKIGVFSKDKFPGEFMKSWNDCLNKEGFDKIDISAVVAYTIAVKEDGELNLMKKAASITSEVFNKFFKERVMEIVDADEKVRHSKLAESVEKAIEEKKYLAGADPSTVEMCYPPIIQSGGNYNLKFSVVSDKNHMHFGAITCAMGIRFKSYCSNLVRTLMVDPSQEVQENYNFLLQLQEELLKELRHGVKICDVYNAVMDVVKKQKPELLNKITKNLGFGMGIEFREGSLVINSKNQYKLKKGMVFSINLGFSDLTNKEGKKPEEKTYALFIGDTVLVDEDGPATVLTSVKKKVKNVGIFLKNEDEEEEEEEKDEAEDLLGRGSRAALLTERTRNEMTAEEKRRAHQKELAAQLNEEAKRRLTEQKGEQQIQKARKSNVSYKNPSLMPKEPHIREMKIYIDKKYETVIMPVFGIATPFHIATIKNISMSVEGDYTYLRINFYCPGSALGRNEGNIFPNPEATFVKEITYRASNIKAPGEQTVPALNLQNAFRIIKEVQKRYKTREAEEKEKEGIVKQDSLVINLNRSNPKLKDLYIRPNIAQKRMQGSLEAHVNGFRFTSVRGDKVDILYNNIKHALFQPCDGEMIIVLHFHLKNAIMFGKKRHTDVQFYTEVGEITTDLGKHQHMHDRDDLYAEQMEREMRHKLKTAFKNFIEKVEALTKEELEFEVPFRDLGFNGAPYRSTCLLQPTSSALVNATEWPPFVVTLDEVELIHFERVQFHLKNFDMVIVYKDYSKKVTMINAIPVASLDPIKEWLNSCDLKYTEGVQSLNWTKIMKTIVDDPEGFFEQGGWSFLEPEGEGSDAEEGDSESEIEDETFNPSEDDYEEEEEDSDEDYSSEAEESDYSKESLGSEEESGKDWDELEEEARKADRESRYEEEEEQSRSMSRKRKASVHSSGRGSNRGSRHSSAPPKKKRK

Sequences and labels used below:
B1: SAP18 (protein, UniProt O00422 1-153)
chain: MAVESRVTQEEIKKEPEKPIDREKTCPLLLRVFTTNNGRHHRMDEFSRGNVPSSELQIYTWMDATLKELTSLVKEVYPEARKKGTHFNFAIVFTDVKRPGYRVKEIGSTMSGRKGTDDSMTLQSQKFQIGDYLDIAITPPNRAPPPSGRMRPY

No constants are given. Whether binding was seen depends on the method and setting. Binding seen in cells or lysates may run through a third protein. Some binding calls cover weakened binding; strength is not graded here.

The target in the first test is GST-Tat (HIV-1 HXB2, 86 amino acids) (HIV-1 HXB2) (UniProt P04608). In words: pull-down; GST, GST-Tat or GST-Tat-NLS immobilised on glutathione-Sepharose; Jurkat nuclear extract (150 ug); washes in binding buffer with 300 mM, 500 mM, 800 mM or 1 M NaCl (GST-Tat-NLS: 300 mM); eluates by Western blot; only the target purified.
On to RbAp48 (from UniProt Q09028 1-425), for which the binding result is reported as “binds”.
On to Ikaros (from UniProt Q13422 1-519), for which the binding result was “binds”.
With SNF2H (from UniProt O60264 1-1052), the binding result was “binds”.
Consider BAF53A (from UniProt O96019 1-429), for which the binding result was “binds”.
On to HDAC-1 (from UniProt Q13547 1-482), for which the binding entry is recorded as “binds”.
SPT16 (from UniProt Q9Y5B9 1-1047): the binding result was “binds”.

The next test has the same target. The description is as above. This is another data set of the same source.
Turning to B1, the binding entry is listed as “binds”.
